{
  "source": "the supplement of paper PMC8728848",
  "assay_in_all_cases": "glycan array binding signal (z-score within array); higher = stronger binding",
  "conditions_in_all_cases": "glycan notation: IUPAC condensed, linker removed",
  "key": {"[1]": {"molecular_target": "Fuc(a1-2)Gal(b1-4)GlcNAc(b1-3)Gal(b1-4)GlcNAc(b1-2)Man(a1-3)[Fuc(a1-2)Gal(b1-4)GlcNAc(b1-3)Gal(b1-4)GlcNAc(b1-2)Man(a1-6)]Man(b1-4)GlcNAc(b1-4)GlcNAc", "method_in_brief": "(§1)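 Columns mapping to the same glycan were averaged after glycan names were converted to IUPAC-condensed notation. The data come from 3228 arrays in the Consortium for Functional Glycomics database, limited to those with an available protein sequence. Binding is reported as a within-array Z-score averaged across arrays of one protein sequence and across linkers.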"}, "[2]": {"molecular_target": "Fuc(a1-2)Gal(b1-4)GlcNAc(b1-3)Gal(b1-4)GlcNAc(b1-3)Gal(b1-4)GlcNAc", "method_in_brief": "as §1"}, "[3]": {"molecular_target": "Fuc(a1-2)Gal(b1-4)GlcNAc(b1-3)GalNAc", "method_in_brief": "as §1"}, "[4]": {"molecular_target": "Fuc(a1-2)Gal(b1-4)GlcNAc(b1-3)[Fuc(a1-2)Gal(b1-4)GlcNAc(b1-6)]GalNAc", "method_in_brief": "as §1"}, "[5]": {"molecular_target": "Fuc(a1-2)Gal(b1-4)GlcNAc(b1-3)[Fuc(a1-3)[Gal(b1-4)]GlcNAc(b1-6)]Gal(b1-4)Glc", "method_in_brief": "as §1"}, "[6]": {"molecular_target": "Fuc(a1-2)Gal(b1-4)GlcNAc(b1-6)GalNAc", "method_in_brief": "as §1"}, "[7]": {"molecular_target": "Fuc(a1-2)Gal(b1-4)GlcNAc6S", "method_in_brief": "as §1"}, "[8]": {"molecular_target": "Fuc(a1-2)Gal(b1-4)[Fuc(a1-3)]GlcNAc", "method_in_brief": "as §1"}, "[9]": {"molecular_target": "Fuc(a1-2)Gal(b1-4)[Fuc(a1-3)]GlcNAc(b1-2)Man(a1-3)[Fuc(a1-2)Gal(b1-4)[Fuc(a1-3)]GlcNAc(b1-2)Man(a1-6)]Man(b1-4)GlcNAc(b1-4)[Fuc(a1-6)]GlcNAc", "method_in_brief": "as §1"}, "[10]": {"molecular_target": "Fuc(a1-2)Gal(b1-4)[Fuc(a1-3)]GlcNAc(b1-2)[Fuc(a1-2)Gal(b1-4)[Fuc(a1-3)]GlcNAc(b1-4)]Man(a1-3)[Fuc(a1-2)Gal(b1-4)[Fuc(a1-3)]GlcNAc(b1-2)Man(a1-6)]Man(b1-4)GlcNAc(b1-4)GlcNAc", "method_in_brief": "as §1"}, "[11]": {"molecular_target": "Fuc(a1-2)Gal(b1-4)[Fuc(a1-3)]GlcNAc(b1-3)Gal(b1-4)[Fuc(a1-3)]GlcNAc", "method_in_brief": "as §1"}, "[12]": {"molecular_target": "Fuc(a1-2)Gal(b1-4)[Fuc(a1-3)]GlcNAc(b1-3)Gal(b1-4)[Fuc(a1-3)]GlcNAc(b1-3)Gal(b1-4)[Fuc(a1-3)]GlcNAc", "method_in_brief": "as §1"}, "[13]": {"molecular_target": "Fuc(a1-2)Gal(b1-4)[Fuc(a1-3)]GlcNAc(b1-3)GalNAc", "method_in_brief": "as §1"}, "[14]": {"molecular_target": "Fuc(a1-2)Gal(b1-4)[Fuc(a1-3)]GlcNAc(b1-3)[Neu5Ac(a2-6)Gal(b1-4)GlcNAc(b1-6)]Gal(b1-4)Glc", "method_in_brief": "as §1"}, "[15]": {"molecular_target": "Fuc(a1-2)Gal3S(b1-4)GlcNAc", "method_in_brief": "as §1"}, "[16]": {"molecular_target": "Fuc(a1-2)Gal6S(b1-3)GlcNAc", "method_in_brief": "as §1"}, "[17]": {"molecular_target": "Fuc(a1-2)Gal6S(b1-3)GlcNAc6S", "method_in_brief": "as §1"}, "Fuc(a1-2)Gal6S(b1-4)Glc": {"molecular_target": "Fuc(a1-2)Gal6S(b1-4)Glc", "method_in_brief": "as §1"}, "[18]": {"molecular_target": "Fuc(a1-2)Gal6S(b1-4)Glc6S", "method_in_brief": "as §1"}, "Fuc(a1-2)[Gal(a1-3)]Gal": {"molecular_target": "Fuc(a1-2)[Gal(a1-3)]Gal", "method_in_brief": "as §1"}, "[19]": {"molecular_target": "Fuc(a1-2)[Gal(a1-3)]Gal(b1-3)GalNAc", "method_in_brief": "as §1"}, "[20]": {"molecular_target": "Fuc(a1-2)[Gal(a1-3)]Gal(b1-3)GalNAc(b1-3)Gal(a1-4)Gal(b1-4)Glc", "method_in_brief": "as §1"}, "[21]": {"molecular_target": "Fuc(a1-2)[Gal(a1-3)]Gal(b1-3)GlcNAc", "method_in_brief": "as §1"}, "[22]": {"molecular_target": "Fuc(a1-2)[Gal(a1-3)]Gal(b1-3)GlcNAc(b1-2)Man(a1-3)[Fuc(a1-2)[Gal(a1-3)]Gal(b1-3)GlcNAc(b1-2)Man(a1-6)]Man(b1-4)GlcNAc(b1-4)GlcNAc", "method_in_brief": "as §1"}, "[23]": {"molecular_target": "Fuc(a1-2)[Gal(a1-3)]Gal(b1-3)GlcNAc(b1-2)Man(a1-3)[Fuc(a1-2)[Gal(a1-3)]Gal(b1-3)GlcNAc(b1-2)Man(a1-6)]Man(b1-4)GlcNAc(b1-4)[Fuc(a1-6)]GlcNAc", "method_in_brief": "as §1"}, "[24]": {"molecular_target": "Fuc(a1-2)[Gal(a1-3)]Gal(b1-3)GlcNAc(b1-3)GalNAc", "method_in_brief": "as §1"}, "[25]": {"molecular_target": "Fuc(a1-2)[Gal(a1-3)]Gal(b1-3)GlcNAc(b1-6)GalNAc", "method_in_brief": "as §1"}, "[26]": {"molecular_target": "Fuc(a1-2)[Gal(a1-3)]Gal(b1-4)Glc", "method_in_brief": "as §1"}, "[27]": {"molecular_target": "Fuc(a1-2)[Gal(a1-3)]Gal(b1-4)GlcNAc", "method_in_brief": "as §1"}, "[28]": {"molecular_target": "Fuc(a1-2)[Gal(a1-3)]Gal(b1-4)GlcNAc(b1-2)Man", "method_in_brief": "as §1"}},
  "note": "The list shows a part of the results.",
  "data": [
    {"binder": "LlpA (Burkholderia cenocepacia) (protein) MGSSHHHHHHSSGLVPRGSHKILGSNETLSAGNVVYSDNGQYHLAMQTDGNLVVYGPTGAVWQSQTSGSGGNRAVMQGDGNLVIYRADNTAAWSSKTAHPGAFLAVQDDGNVVIYWPRPAWASNTSDPATQQSAESKYLASGSTMSAGQTVTVAQYMLVFQADGNLVLYKNGGNPIWSTGTQGKGATYAVMQSDGNFVIYAGSTALWSTKTNGANGAQLVLQSDGNLVIYAPTAAWSTKFGLVTAPTSTSTSNNGPGSGICVGVCPPHPLNGNPFSPVGVGTTGLGFPTPGYPGAAF", "values": [
      {"measurement": "glycan array binding signal (z-score)", "setting": "[1]", "result": 1.25},
      {"measurement": "glycan array binding signal (z-score)", "setting": "[2]", "result": 0.594},
      {"measurement": "glycan array binding signal (z-score)", "setting": "[3]", "result": 0.926},
      {"measurement": "glycan array binding signal (z-score)", "setting": "[4]", "result": -0.424},
      {"measurement": "glycan array binding signal (z-score)", "setting": "[5]", "result": 1.43},
      {"measurement": "glycan array binding signal (z-score)", "setting": "[6]", "result": -0.461},
      {"measurement": "glycan array binding signal (z-score)", "setting": "[7]", "result": -0.241},
      {"measurement": "glycan array binding signal (z-score)", "setting": "[8]", "result": 0.438},
      {"measurement": "glycan array binding signal (z-score)", "setting": "[9]", "result": -0.684},
      {"measurement": "glycan array binding signal (z-score)", "setting": "[10]", "result": -0.26},
      {"measurement": "glycan array binding signal (z-score)", "setting": "[11]", "result": 0.198},
      {"measurement": "glycan array binding signal (z-score)", "setting": "[12]", "result": -0.322},
      {"measurement": "glycan array binding signal (z-score)", "setting": "[13]", "result": 0.348},
      {"measurement": "glycan array binding signal (z-score)", "setting": "[14]", "result": -0.773},
      {"measurement": "glycan array binding signal (z-score)", "setting": "[15]", "result": -1.76},
      {"measurement": "glycan array binding signal (z-score)", "setting": "[16]", "result": 0.167},
      {"measurement": "glycan array binding signal (z-score)", "setting": "[17]", "result": -0.744},
      {"measurement": "glycan array binding signal (z-score)", "setting": "Fuc(a1-2)Gal6S(b1-4)Glc", "result": -0.166},
      {"measurement": "glycan array binding signal (z-score)", "setting": "[18]", "result": 0.91},
      {"measurement": "glycan array binding signal (z-score)", "setting": "Fuc(a1-2)[Gal(a1-3)]Gal", "result": -0.171},
      {"measurement": "glycan array binding signal (z-score)", "setting": "[19]", "result": 0.017},
      {"measurement": "glycan array binding signal (z-score)", "setting": "[20]", "result": -0.361},
      {"measurement": "glycan array binding signal (z-score)", "setting": "[21]", "result": 0.129},
      {"measurement": "glycan array binding signal (z-score)", "setting": "[22]", "result": 0.005},
      {"measurement": "glycan array binding signal (z-score)", "setting": "[23]", "result": -1.07},
      {"measurement": "glycan array binding signal (z-score)", "setting": "[24]", "result": -1.03},
      {"measurement": "glycan array binding signal (z-score)", "setting": "[25]", "result": -1.44},
      {"measurement": "glycan array binding signal (z-score)", "setting": "[26]", "result": -0.011},
      {"measurement": "glycan array binding signal (z-score)", "setting": "[27]", "result": -0.605},
      {"measurement": "glycan array binding signal (z-score)", "setting": "[28]", "result": 0.547}
    ]}
  ]
}
